In PubChem BioAssay AID248 (DTP/NCI, 2004) one finds survivor count and T/C data, which are given here for 13 molecules.

The assay has as its system L1210 leukemia ip in BDF1 mice, survival T/C. Kind of assay: NCI In Vivo Anticancer Drug Screen. Data for tumor model L1210 Leukemia (intraperitoneal) in B6D2F1 (BDF1) mice. As to conditions: T/C endpoint: mean survival time, higher T/C = longer survival.
Where [1] appears, read: dose: 400.0 mg/kg/injection, schedule: Q01DX009 (ip), vehicle: saline with Tween-80.

Each structure is given as a SMILES string. The list is a part of this screen's results and no random one: it gathers tests that were run many times, whatever their T/C, doses with no T/C, and many T/C values between a quarter and a half above the control. Other doses and runs of a compound stand elsewhere. T/C: endpoint of the treated group in % of that of the vehicle group. Some entries give survivors of the animals treated and no T/C: the source holds a T/C of zero for them, seemingly a mark for toxic or unscored doses. Some doses without a T/C left all or most animals alive at the check, yet need not have been tolerated: survival well below the control is almost never listed, so the zero probably covers shortened survival too. Counts of survivors are from the toxicity check (mostly the fifth day) where no day follows; animals may have died later. Schedule codes are those of the source, taken here to give the interval after Q, in days (D) or hours (H), and the number of doses after X. Where survival is the endpoint, the PubChem record calls one and a half times the control and up active, and a quarter to a half above the control has no call in these data; cut-offs in other NCI protocols can differ. Some T/C values carry the count of animals alive at the toxicity check (mostly the fifth day); where none is given, no animal had died by that day.

Consider `O=[N+]([O-])c1ccc2c(c1)C(Br)c1ccccc1-2` (stereo unspecified), for which, under “dose: 400.0 mg/kg/injection, schedule: Q01DX009 (ip), vehicle: Klucel (hydroxypropylcellulose) (HPC)”, the survivor count is 4 of 6.

On to `CC(=O)NC1CCCC2CCCCC21` (stereo unspecified), for which, under setting [1], the survivor count is 3 of 6.

With `CSC(N)=Nc1c(C)cccc1C`, the survivor count (dose: 400.0 mg/kg/injection, schedule: Q01DX001 (ip), vehicle: saline) is given as 2 of 6.

`C/C=C\C(=O)O`: the survivor count (dose: 400.0 mg/kg/injection, schedule: Q01DX009 (ip), vehicle: saline) is 0 of 6.

For the molecule `CC(C)(C)[CH2][Sn]([Br])([Br])[CH2]C(C)(C)C`, the survivor count is reported as 0 of 6 (dose: 18.75 mg/kg/injection, schedule: Q01DX001 (ip), vehicle: other); 0 of 6 (dose: 37.5 mg/kg/injection, schedule: Q01DX001 (ip), vehicle: other); 0 of 6 (dose: 75.0 mg/kg/injection, schedule: Q01DX001 (ip), vehicle: other); 0 of 6 (dose: 150.0 mg/kg/injection, schedule: Q01DX001 (ip), vehicle: other); 0 of 6 (dose: 300.0 mg/kg/injection, schedule: Q01DX001 (ip), vehicle: other).

Consider `Cc1cc2nc(Cc3nc4cc(C)c(C)cc4[nH]3)[nH]c2cc1C`, for which the survivor count by setting is: (dose: 100.0 mg/kg/injection, schedule: Q04DX003 (ip), vehicle: saline) 6 of 6; (dose: 400.0 mg/kg/injection, schedule: Q04DX003 (ip), vehicle: saline) 3 of 6.

For the molecule `CN(C)C=O.CN(C)C=O.[Cl][Sn]([Cl])([Cl])[Cl]`, the survivor count (dose: 200.0 mg/kg/injection, schedule: Q01DX009 (ip), vehicle: Klucel (hydroxypropylcellulose) (HPC)) is reported as 1 of 6 and the survivor count (dose: 400.0 mg/kg/injection, schedule: Q04DX003 (ip), vehicle: Klucel (hydroxypropylcellulose) (HPC)) is listed as 0 of 6.

Take `CS(C)(C)N1C(=O)c2ccccc2C1=O`: the survivor count (dose: 350.0 mg/kg/injection, schedule: Q01DX009 (ip), vehicle: Klucel (hydroxypropylcellulose) (HPC)) was 0 of 6.

As for `O=S(=O)(F)c1ccc(N=C=S)cc1`, the survivor count by setting is: (dose: 100.0 mg/kg/injection, schedule: Q01DX009 (ip), vehicle: saline with Tween-80) 4 of 6; (dose: 200.0 mg/kg/injection, schedule: Q01DX009 (ip), vehicle: saline with Tween-80) 0 of 6; under setting [1], 0 of 6.

Consider `Oc1cc(N2CC2)c(O)cc1N1CC1`, for which the T/C reads like this: (dose: 0.6 mg/kg/injection, schedule: Q01DX009 (ip), vehicle: saline) 138 % of control; (dose: 1.0 mg/kg/injection, schedule: Q01DX009 (ip), vehicle: saline) 131 % of control [5 of 6 alive]; (dose: 2.0 mg/kg/injection, schedule: Q01DX009 (ip), vehicle: saline) 149 % of control. In addition, the survivor count by setting is: (dose: 1.25 mg/kg/injection, schedule: Q01DX001 (ip), vehicle: saline) 4 of 6; (dose: 1.25 mg/kg/injection, schedule: Q01DX009 (ip), vehicle: saline) 6 of 6; (dose: 2.5 mg/kg/injection, schedule: Q01DX001 (ip), vehicle: saline) 4 of 6; (dose: 2.5 mg/kg/injection, schedule: Q01DX009 (ip), vehicle: saline) 3 of 6; (dose: 5.0 mg/kg/injection, schedule: Q01DX001 (ip), vehicle: saline) 6 of 6; (dose: 5.0 mg/kg/injection, schedule: Q01DX009 (ip), vehicle: saline) 2 of 6. The survivor count runs as follows: (dose: 10.0 mg/kg/injection, schedule: Q01DX001 (ip), vehicle: carboxymethylcellulose (CMC)) 4 of 4; (dose: 10.0 mg/kg/injection, schedule: Q01DX001 (ip), vehicle: saline) 1 of 6; (dose: 20.0 mg/kg/injection, schedule: Q01DX001 (ip), vehicle: carboxymethylcellulose (CMC)) 2 of 4; (dose: 40.0 mg/kg/injection, schedule: Q01DX001 (ip), vehicle: carboxymethylcellulose (CMC)) 2 of 4; (dose: 80.0 mg/kg/injection, schedule: Q01DX001 (ip), vehicle: carboxymethylcellulose (CMC)) 1 of 4; (dose: 100.0 mg/kg/injection, schedule: Q01DX001 (ip), vehicle: carboxymethylcellulose (CMC)) 0 of 4. The survivor count reads like this: (dose: 200.0 mg/kg/injection, schedule: Q01DX001 (ip), vehicle: carboxymethylcellulose (CMC)) 0 of 4; (dose: 400.0 mg/kg/injection, schedule: Q01DX001 (ip), vehicle: carboxymethylcellulose (CMC)) 0 of 4.

With `CP(C)(=S)P(C)(C)=S`, the survivor count was 1 of 3 (dose: 200.0 mg/kg/injection, schedule: Q04DX002 (ip), vehicle: Klucel (hydroxypropylcellulose) (HPC)) and 1 of 3 (dose: 400.0 mg/kg/injection, schedule: Q04DX002 (ip), vehicle: Klucel (hydroxypropylcellulose) (HPC)).

`Nc1nc(N)c2c(n1)Nc1ccc(Cl)nc1S2`: the survivor count (dose: 300.0 mg/kg/injection, schedule: Q01DX009 (ip), vehicle: Klucel (hydroxypropylcellulose) (HPC)) is recorded as 2 of 6.

On to `CCC[CH2][Sn]([Cl])([CH2]CCC)[S]C(=S)NCCNC(=S)[S][Sn]([Cl])([CH2]CCC)[CH2]CCC`, for which the survivor count is, setting by setting: (dose: 50.0 mg/kg/injection, schedule: Q04DX002 (ip), vehicle: other) 0 of 3; (dose: 100.0 mg/kg/injection, schedule: Q04DX002 (ip), vehicle: other) 0 of 3; (dose: 200.0 mg/kg/injection, schedule: Q04DX002 (ip), vehicle: other) 0 of 3; (dose: 400.0 mg/kg/injection, schedule: Q04DX002 (ip), vehicle: other) 0 of 3.
